Tests used:
Assay type in all cases: in vivo
[1] = test system: focal cerebral ischemia in rats; test: Focal cerebral ischemia in rats by occlusion of middle cerebral artery (MCA); settings: 20 mg/kg p.o.
Method: The focal ischemia rat model by occlusion of middle cerebral artery (MCA) was used to determine the protective effects of the compounds on focal cerebral ischemia. The infarct size after focal cerebral ischemia and the weight percentage of cerebral hemisphere were calculated to evaluate the compounds' effects on focal cerebral ischemia.

[2] = test system: focal cerebral ischemia in rats; test: Focal cerebral infarction, electrical coagulation to occlude MCA
Method: a. The Focal Cerebral-Infarction of Using Electrical Coagulation to Occlude MCA:
For the 5 mg/kg group, the percentage of the rat's infarct size was decreased, but the difference is not significant (p=0.098). The effect is not significant for the Nimodipine mg/kg.

[3] = test system: focal cerebral ischemia in rats; test: Focal brain injury, occlusion of MCA induced by photochemical reaction; settings: 2 mg/kg
Method: a. Focal brain injury caused by photochemical induction of occlusion of the artery:
The percentage of infarction was lowered by 52% at 24 hours after operation.

Structure (SMILES)	Right hemisphere-Weight [1] [g]	The weight of the right cerebral hemisphere ([2]; High-dose (20 mg/kg)) [g]	The weight of the right cerebral hemisphere ([2]; Low-dose (5 mg/kg)) [g]	The weight of the right cerebral hemisphere ([2]; middle-dose (10 mg/kg)) [g]	Weight of right hemisphere [3] [g]
O=C(CN1CCN(CC=Cc2ccccc2)CC1)NCc1ccccc1 [IV-21, N1-[2-(benzylamino)-2-oxo-ethyl]-N^4-cinnamyl piperazine]	0.76 ± 0.02				
COc1ccc2cc(C(=O)C(C)N3CCN(CC(=O)c4ccccc4)CC3)ccc2c1Cl (stereo not drawn) [IV-20, N^1-phenacyl-N^4-[1-(5-chloro-6-methoxy-2-naphthoyl)ethyl]piperazine]	0.74 ± 0.01				
O=C(CN1CCN(S(=O)(=O)Cc2ccc(F)cc2F)CC1)c1ccccc1 [IV-22, N^1-phenacyl-N^4-(2,4-difluorobenzylsulfonyl) piperazine]	0.73 ± 0.01				
O=C(CN1CCN(CC(=O)c2ccccc2)CC1)NCc1ccccc1 [IV-23, N^1-phenacyl-N^4-[2-(benzylamino)-2-oxo-ethyl] piperazine]	0.737 ± 0.029	0.73 ± 0.02	0.73 ± 0.01	0.73 ± 0.01	0.68 ± 0.01
O=c1[nH]c2cc(Cl)c(Cl)c([N+](=O)[O-])c2[nH]c1=O [ACEA-1021, reference compound]					0.70 ± 0.01

From patent US7326710B2, “Aralkyl formyl-alkyl piperazine derivatives and their uses as a cerebral nerve protective agent” (Shanghai Institute of Pharmaceutical Industry, priority 2002, dated 2008)
